Test results taken from the supplement of paper PMC3334620.
Over roughly 33,000 sequences, “E-score (-0.5 to 0.5)” has its median near -0.0014; the highest 2% begin near 0.25. This is one part of the list.

The sequences below were run against T1, Cad1 (UniProt P24813) (assay: PBM E-score (8-mer binding enrichment) (E-score (-0.5 to 0.5)); higher = stronger / more preferred TF binding). Settings: protein concentration: 100 nM; construct: GST-full length.
T1 sequence: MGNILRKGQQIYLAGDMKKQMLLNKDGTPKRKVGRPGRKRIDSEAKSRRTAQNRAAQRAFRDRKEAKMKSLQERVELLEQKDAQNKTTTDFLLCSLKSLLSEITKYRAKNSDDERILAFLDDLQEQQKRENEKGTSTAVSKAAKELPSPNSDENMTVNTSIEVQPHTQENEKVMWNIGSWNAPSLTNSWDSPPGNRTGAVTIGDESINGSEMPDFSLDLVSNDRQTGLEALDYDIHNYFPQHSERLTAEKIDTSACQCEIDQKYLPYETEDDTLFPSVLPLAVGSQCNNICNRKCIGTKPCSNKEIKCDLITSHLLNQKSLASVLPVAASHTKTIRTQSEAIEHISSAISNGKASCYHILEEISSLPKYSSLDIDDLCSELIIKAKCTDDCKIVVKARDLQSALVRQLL
Method in brief: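 E-scores (a modified Wilcoxon-Mann-Whitney statistic) were assigned by the Universal PBM Analysis Suite to every ungapped eight-base word pooled with its reverse complement. The input came from universal all-10-mer Agilent arrays made double-stranded by primer extension and probed with GST-tagged yeast transcription factors at about 100-200 nM. Fluorescent anti-GST detected bound protein, and masliner normalised the scans.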

Sequence | PBM E-score
CTAAAGCC | -0.214
ATAAGTTG | 0.0577
ACGATGCC | -0.129
ATCAACAA | 0.208
GTACGTGA | 0.0217
AGGAAGTG | 0.0356
CCGACACC | -0.0919
ATGAAATG | -0.0426
GGCTGAAC | -0.0285
GCGTCTTA | -0.0584
AGGACGAG | -0.175
ACTCATAT | 0.00371
AAAGTGGA | -0.101
CGCGCTTA | 0.262
CATTTACA | 0.0347
CTAGTTTA | 0.0779
AATTGTGT | -0.0588
GAGAGGCC | -0.198
GGTTGATA | 0.144
ACCCTCTG | -0.231
CTTTGCGA | -0.0508
AAGGCCTA | -0.0263
ACTTGACG | -0.0557
GCATGTTA | 0.138
GAAAGGTC | -0.183

Look-ups from the entries so far:
Value of GCGTCTTA under PBM E-score: -0.0584
Value of CGCGCTTA under PBM E-score: 0.262

Continuation:

Sequence | PBM E-score
CGTGTTAG | 0.168
AGGCCCCA | -0.194
CCAACCGA | 0.113
CTAACGAG | 0.0159
CCTGAACG | -0.0444
GATGCAGA | 0.146
CGAGCGCC | 0.0144
CCGGTTCG | -0.0989
CGAGGACC | -0.00988
AGCTGAGG | -0.0903
ACACACAA | 0.103
ACAAAGGT | 0.0912
ACAAACGT | 0.0361
ACCCCTAA | -0.137
CGTCTGGA | -0.205
ACGAGCGT | 0.0203
AGATGGGG | -0.216
AACTTAGA | 0.0275
AGCCATGC | 0.0201
AGCTTTAT | -0.0448
GACATTGA | 0.0902
AAATAGCA | 0.036
CTCGCGGA | -0.155
CCATCCAG | -0.0345
ATTTCCAA | -0.03

Sequence | PBM E-score
GGATCCTA | -0.139
ATAGTGCA | 0.192
ACTGCTAA | -0.114
AGCTCACA | -0.0541
CACTAGAC | -0.0989
GAGAACAA | 0.148
ACTGACGC | -0.17
ATTCCACA | 0.158
AAAGTCTA | -0.0301
CCCATCAA | 0.0315
TGCTGCCA | -0.0292
CACCTTCC | -0.0223
GCCCCAGC | -0.0912
AAGTTCCC | -0.103
GTATAGGA | -0.174
GCGAAGGA | -0.182
AGGACTTG | -0.0585
CACTGCAA | 0.0892
CCATAAGG | -0.231
TAAGGTCA | -0.077
AATCGGCG | -0.0003
ACGTCGCT | -0.117
GGTTCCAC | -0.0608
CGCCCGGA | 0.0107
CTAGGTCA | -0.062

Sequence | PBM E-score
ATCGCTGG | -0.0128
ACGGCCCA | -0.228
CAGTCTAG | -0.112
AGTTTCCG | 0.105
ATTGGGCA | -0.0742
GTTCAACA | 0.156
AAACACCA | -0.00879
ACGTAGAA | -0.0137
ATCATCTC | -0.015
TGAATCAA | 0.15
GTCCGTTA | 0.199
ACCTTGTG | -0.213
ATAACAAA | 0.312
ACAACTTA | 0.0711
AGACAGGG | -0.229
GAAGGGCA | -0.122
CAGTCACC | -0.115
AAAATACA | 0.0431
CGAATAGC | 0.0486
ACGGGTCT | -0.252
AGGATTTC | 0.101
ACTGCGCC | -0.176
ATGGAACC | -0.0448
AAGTAGCA | 0.0365
CCTGTCAG | 0.0622

Sequence | PBM E-score
CTATAACC | -0.04
CCATGCGG | -0.216
AGTTATTA | 0.127
AAATTAAG | 0.0523
CAGTGCTA | 0.0113
CTTCCTGC | -0.219
ACATCGGA | 0.0266
GTCATGCA | 0.0469
CCCCCACG | -0.358
ATCTCTAC | 0.0955
CACTGCCG | -0.0717
GACTTTAA | -0.0306
AGCCTGTG | -0.223
TGGCTGAA | -0.0767
AGGCCGAG | 0.0768
CAGATCGA | 0.125
ATGTCGGG | -0.0614
AATCACGT | 0.184
CGCTAGCA | -0.0293
AACACTAA | 0.12
AACAACTG | -0.0106
GGAAATGA | 0.121
GATAAGGA | 0.122
CCATCTAA | -0.0492
GGAATCAC | 0.109

A stretch taken from the entries so far, for reference:
Sequence | PBM E-score
CACTGCCG | -0.0717
GACTTTAA | -0.0306
AGCCTGTG | -0.223
TGGCTGAA | -0.0767

Next part

Sequence | PBM E-score
AGAGCACG | -0.134
GCACGAAC | 0.135
CGCGTTAC | 0.139
GACCTAGA | -0.106
CATAACGG | -0.00107
GTTAAAAC | -0.00321
TTCTAAAA | 0.0693
GCGTGCAC | 0.0421
TACTCTGA | -0.1
ATAATGCC | -0.00833
CATTTCCC | 0.13
CGTCCTAA | -0.0443
GCTTTCCA | -0.00472
GGTTTTCA | 0.197
ATGTCTAC | -0.0585
AAAAAACT | -0.0771
GATACATC | 0.131
ATGTTGGA | 0.197
CCTACTCG | -0.0435
CATAAACC | -0.0325
AGGTATGG | -0.152
AAGATGCC | -0.0381
CTCCAAAG | -0.193
AGGGGAAC | -0.229
ACTTTAGC | -0.184

Sequence | PBM E-score
CCTGAAAC | 0.0798
CACTGATC | -0.0338
CGCCCTTA | 0.0304
CTTTACCC | -0.0714
CGGCATGA | 0.231
AGGGTGAA | -0.112
CATATTCA | 0.108
GGAGACCA | -0.162
CTGCGTGC | 0.0457
CCCTGCTC | -0.169
CCGGACGG | -0.0683
CTCTAGGC | -0.211
AGAAGGGA | -0.373
GGAGGTTA | -0.16
ACGGCCGC | 0.159
GGAAGGGA | -0.336
CGGTCAGC | 0.184
AAATTAGC | 0.191
CACCTCCC | -0.195
GCCGAGCA | -0.0992
GTATATCA | 0.139
AAAGAGGA | -0.107
